Source: patent publication CN115707716A
No constants are given. Whether binding was seen depends on the method and setting. Some binding calls cover weakened binding; strength is not graded here.

Target: T1, TGF-β2 (UniProt P61812)
T1 sequence (looked up): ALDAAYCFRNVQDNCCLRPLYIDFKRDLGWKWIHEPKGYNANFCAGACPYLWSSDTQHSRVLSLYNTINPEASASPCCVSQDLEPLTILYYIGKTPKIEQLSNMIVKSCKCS
Assay: BLI (octet), TGF-β2 coupled to AR2G probe, antibody in solution

B1: 抗TGF-β单抗12.7 (antibody, human IgG4 S228P, kappa, V domains shown)
VH: QVQLVQSGAEVKKPGASVKVSCKASGYTFTSEWMNWVRQAPGQGLEWMGQIFPALGSTNYNEMYEGRVTMTTDTSTSTAYMELRSLRSDDTAVYYCARGIGNYALDAMDYWGQGTLVTVSS
VL: DIQMTQSPSSLSASVGDRVTITCRASESVDFYGNSFMHWYQQKPGKAPKLLIYLASNLESGVPSRFSGSGSGTDFTLTISSLQPEDFATYYCQQNIEDPLTFGGGTKVEIKR
  binding: binds
